Experimental data taken from the supplement of paper PMC10849652.
Some of the results follow.

The chains behind the UniProt entries cited, without tags or fusion partners. Where a name states a change or a piece, a line headed by the entry shows the natural chain unless it says otherwise.
UniProt Q86YR5: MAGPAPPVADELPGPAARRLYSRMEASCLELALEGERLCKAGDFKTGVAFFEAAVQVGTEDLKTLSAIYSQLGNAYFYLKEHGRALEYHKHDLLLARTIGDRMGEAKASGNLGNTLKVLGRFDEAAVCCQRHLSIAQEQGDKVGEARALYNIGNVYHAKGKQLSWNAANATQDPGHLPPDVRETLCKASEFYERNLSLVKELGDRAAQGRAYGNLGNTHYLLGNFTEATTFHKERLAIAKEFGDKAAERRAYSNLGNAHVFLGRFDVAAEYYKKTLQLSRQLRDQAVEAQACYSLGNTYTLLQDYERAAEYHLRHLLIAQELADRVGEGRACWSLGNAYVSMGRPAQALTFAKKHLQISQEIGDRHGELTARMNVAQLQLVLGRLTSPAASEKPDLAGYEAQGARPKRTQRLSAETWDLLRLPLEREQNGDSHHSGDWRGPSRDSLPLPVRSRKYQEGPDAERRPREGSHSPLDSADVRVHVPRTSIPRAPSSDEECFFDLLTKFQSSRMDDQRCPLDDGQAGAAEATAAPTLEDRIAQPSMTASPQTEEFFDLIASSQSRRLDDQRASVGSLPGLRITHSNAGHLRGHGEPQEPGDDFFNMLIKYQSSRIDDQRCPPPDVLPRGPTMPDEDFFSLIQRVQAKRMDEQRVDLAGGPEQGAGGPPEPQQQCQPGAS
UniProt Q9BVM4: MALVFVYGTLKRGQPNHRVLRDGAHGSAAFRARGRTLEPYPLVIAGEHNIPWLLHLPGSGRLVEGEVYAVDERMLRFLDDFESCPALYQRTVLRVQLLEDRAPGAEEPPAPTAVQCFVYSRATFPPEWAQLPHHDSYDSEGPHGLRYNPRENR
UniProt Q9Y692: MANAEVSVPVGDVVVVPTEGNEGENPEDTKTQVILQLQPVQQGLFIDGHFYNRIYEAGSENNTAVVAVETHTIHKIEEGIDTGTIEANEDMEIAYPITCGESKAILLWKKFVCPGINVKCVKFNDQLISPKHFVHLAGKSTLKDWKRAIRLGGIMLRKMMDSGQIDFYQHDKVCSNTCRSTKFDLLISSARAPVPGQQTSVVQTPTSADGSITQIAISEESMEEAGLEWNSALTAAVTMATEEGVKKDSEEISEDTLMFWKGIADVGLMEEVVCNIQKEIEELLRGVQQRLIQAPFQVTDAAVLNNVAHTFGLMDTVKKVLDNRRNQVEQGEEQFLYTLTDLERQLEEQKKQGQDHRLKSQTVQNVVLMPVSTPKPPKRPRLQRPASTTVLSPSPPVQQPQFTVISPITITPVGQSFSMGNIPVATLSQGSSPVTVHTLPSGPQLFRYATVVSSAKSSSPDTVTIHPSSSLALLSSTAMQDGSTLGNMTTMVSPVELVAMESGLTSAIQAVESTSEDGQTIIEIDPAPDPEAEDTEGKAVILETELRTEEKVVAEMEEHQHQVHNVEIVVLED
UniProt Q9H4G4: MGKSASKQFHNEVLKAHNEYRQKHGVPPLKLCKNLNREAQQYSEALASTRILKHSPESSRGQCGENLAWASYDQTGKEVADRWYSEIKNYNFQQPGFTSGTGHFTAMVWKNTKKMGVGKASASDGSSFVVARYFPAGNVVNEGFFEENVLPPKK
UniProt Q9HC44: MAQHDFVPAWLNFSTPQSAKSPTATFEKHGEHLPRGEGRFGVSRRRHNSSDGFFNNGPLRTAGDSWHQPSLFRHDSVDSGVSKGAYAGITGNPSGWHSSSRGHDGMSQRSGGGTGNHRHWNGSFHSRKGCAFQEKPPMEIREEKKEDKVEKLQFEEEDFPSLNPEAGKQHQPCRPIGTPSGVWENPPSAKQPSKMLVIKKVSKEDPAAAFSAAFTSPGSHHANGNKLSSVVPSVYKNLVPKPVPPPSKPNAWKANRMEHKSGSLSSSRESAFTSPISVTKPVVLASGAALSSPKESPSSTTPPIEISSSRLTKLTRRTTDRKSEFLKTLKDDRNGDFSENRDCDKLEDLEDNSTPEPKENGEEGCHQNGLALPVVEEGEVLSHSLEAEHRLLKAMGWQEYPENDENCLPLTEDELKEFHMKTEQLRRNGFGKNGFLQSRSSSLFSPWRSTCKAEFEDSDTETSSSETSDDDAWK
UniProt Q9UBI6: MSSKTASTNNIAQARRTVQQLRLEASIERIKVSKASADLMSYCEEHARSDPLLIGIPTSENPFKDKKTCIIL
UniProt P80108: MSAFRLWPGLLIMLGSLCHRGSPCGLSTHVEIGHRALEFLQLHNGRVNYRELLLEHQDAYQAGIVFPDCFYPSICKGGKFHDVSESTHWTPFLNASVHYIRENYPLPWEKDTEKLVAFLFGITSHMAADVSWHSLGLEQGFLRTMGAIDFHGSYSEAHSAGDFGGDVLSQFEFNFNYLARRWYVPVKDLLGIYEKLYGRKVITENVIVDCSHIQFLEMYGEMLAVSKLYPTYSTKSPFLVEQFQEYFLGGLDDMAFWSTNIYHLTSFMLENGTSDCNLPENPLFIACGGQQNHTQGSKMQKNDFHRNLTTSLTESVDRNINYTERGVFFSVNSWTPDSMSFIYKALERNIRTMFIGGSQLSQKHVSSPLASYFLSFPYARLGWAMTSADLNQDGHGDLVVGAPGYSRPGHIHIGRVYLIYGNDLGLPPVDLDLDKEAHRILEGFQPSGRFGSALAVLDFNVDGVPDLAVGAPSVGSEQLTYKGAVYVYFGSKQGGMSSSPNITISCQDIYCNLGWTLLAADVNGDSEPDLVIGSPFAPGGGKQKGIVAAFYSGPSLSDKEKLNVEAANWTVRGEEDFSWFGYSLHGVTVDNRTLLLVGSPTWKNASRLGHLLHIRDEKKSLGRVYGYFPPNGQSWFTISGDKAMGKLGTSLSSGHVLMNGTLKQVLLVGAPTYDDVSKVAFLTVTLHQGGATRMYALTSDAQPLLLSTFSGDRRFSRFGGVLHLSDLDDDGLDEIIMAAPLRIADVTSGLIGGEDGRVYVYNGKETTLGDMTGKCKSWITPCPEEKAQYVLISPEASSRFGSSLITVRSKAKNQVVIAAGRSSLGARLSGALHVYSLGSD
UniProt Q3T906: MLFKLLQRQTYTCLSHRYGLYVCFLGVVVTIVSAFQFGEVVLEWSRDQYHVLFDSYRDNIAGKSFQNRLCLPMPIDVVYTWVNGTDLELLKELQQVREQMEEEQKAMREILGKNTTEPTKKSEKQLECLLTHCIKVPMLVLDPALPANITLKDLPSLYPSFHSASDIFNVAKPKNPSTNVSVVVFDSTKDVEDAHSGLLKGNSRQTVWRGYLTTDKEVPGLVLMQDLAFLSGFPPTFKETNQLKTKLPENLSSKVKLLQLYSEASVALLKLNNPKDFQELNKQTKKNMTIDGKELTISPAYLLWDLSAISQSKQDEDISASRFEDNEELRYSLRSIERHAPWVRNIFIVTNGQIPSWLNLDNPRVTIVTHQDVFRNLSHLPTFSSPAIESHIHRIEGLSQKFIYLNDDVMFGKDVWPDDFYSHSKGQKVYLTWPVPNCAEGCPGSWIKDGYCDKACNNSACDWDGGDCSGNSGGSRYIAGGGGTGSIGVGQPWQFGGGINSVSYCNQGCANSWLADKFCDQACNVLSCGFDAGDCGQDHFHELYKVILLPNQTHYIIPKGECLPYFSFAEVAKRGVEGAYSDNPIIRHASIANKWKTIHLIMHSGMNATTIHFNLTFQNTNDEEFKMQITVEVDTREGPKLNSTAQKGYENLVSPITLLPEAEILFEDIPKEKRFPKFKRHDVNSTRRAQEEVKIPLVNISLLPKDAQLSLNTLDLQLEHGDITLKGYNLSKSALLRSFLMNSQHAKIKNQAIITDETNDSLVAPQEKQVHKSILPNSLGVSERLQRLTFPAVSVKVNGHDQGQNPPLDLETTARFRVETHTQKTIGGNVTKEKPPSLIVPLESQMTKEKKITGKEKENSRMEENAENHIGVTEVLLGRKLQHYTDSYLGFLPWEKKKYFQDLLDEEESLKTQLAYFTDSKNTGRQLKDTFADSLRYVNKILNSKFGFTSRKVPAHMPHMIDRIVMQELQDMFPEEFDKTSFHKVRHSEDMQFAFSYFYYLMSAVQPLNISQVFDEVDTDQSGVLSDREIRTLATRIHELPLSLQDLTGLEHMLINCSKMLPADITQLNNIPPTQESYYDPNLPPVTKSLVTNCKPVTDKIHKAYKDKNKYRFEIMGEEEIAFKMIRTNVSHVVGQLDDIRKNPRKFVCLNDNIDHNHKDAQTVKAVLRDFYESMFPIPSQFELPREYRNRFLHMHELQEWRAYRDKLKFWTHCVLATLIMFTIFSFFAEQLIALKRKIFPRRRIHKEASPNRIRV
UniProt Q99795: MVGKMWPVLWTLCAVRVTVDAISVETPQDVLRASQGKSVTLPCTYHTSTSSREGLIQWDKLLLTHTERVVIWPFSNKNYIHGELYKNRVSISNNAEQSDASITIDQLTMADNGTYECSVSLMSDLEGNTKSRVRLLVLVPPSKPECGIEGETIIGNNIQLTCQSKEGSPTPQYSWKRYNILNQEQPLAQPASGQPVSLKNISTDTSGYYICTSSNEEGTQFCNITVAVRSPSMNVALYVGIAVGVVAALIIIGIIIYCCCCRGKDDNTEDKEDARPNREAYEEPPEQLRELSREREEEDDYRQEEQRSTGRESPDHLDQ
UniProt P81274: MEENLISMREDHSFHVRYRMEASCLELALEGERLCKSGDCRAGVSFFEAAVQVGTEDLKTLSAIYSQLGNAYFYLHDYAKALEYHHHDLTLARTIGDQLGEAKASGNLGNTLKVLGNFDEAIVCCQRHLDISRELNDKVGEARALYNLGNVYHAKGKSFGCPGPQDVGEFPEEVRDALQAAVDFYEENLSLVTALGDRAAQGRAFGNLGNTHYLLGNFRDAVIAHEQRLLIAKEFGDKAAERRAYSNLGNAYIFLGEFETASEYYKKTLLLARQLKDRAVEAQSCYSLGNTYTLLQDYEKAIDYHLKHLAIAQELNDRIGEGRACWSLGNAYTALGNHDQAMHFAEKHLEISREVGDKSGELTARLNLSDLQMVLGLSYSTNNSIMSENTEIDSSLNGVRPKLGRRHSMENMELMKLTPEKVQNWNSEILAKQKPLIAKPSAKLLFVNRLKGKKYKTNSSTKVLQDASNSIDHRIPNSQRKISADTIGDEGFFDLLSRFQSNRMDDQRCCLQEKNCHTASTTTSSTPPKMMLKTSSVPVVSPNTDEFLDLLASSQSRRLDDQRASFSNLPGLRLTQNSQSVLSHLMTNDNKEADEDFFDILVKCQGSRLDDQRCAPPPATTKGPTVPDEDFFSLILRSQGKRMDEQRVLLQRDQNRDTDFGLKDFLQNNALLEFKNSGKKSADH
UniProt Q9BQQ3: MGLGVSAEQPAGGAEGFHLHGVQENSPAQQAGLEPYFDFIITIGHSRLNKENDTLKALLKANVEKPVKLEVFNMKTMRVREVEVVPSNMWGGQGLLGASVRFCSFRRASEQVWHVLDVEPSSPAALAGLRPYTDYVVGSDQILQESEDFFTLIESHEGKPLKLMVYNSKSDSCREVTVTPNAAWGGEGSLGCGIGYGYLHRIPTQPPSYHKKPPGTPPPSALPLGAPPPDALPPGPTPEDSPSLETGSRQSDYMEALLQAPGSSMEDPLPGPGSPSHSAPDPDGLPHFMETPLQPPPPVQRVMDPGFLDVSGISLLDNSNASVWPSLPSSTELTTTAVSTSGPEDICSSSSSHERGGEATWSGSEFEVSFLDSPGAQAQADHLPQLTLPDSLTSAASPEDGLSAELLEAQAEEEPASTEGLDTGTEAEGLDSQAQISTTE
UniProt Q8TF64: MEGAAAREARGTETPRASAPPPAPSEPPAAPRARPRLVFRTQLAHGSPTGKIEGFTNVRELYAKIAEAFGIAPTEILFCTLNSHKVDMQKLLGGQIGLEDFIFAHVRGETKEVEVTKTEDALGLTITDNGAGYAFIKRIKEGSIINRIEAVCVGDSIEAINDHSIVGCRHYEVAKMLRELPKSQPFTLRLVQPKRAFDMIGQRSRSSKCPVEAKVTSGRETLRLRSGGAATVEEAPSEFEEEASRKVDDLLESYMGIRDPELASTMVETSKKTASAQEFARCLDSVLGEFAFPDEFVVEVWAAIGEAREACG
UniProt Q9NWQ4: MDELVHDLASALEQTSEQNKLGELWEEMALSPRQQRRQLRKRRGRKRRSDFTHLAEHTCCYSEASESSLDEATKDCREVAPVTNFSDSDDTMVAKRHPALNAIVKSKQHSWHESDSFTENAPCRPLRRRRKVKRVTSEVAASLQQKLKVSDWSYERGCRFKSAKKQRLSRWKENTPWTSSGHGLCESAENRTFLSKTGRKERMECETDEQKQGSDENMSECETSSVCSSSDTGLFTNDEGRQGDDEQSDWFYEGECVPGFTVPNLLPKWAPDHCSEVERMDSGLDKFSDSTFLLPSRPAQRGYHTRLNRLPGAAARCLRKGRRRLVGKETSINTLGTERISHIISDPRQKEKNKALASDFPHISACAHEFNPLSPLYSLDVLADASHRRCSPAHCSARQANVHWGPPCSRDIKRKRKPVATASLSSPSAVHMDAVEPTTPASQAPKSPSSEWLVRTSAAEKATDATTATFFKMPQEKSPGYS

What was measured:
Assay in all cases: log2 fold change, soluble protein after heating vs DMSO (PISA); higher = thermal stabilisation; K562 lysate, 10 uM; active = over 0.2 and 3.5 SD of the protein, either way, in both replicates (recomputed)
erlotinib = compound: C#Cc1cccc(Nc2ncnc3cc(OCCOC)c(OCCOC)cc23)c1 [erlotinib]
In short: (§1)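 K562 pellets were dounce-homogenised in PBS pH 7.4 containing 1 mM MgCl2, and the crude extract, at 1 mg/mL protein, was exposed to 10 μM compound for 30 min. Aliquots were heated for 3 min across 48°C-58°C, pooled, brought to 0.5% NP-40 at 4°C and spun at 21,000xg for 90 min, with the supernatant taken as soluble protein. TMTpro 16plex LC-MS/MS with equalised channel sums quantified that protein. Values are log-two fold changes in thermal stability relative to solvent controls, taken from duplicates.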

[1] = compound: C/C(=N\NC(=O)C1=CC(=CC=C1)S(=O)(=O)N2CCOCC2)/C3=C(C=CC(=C3)Cl)O
In short: as §1

[2] = compound: C1=CC(=CC=C1C2=NC3=C(N2)C=C(C=C3)C(=O)N)OC4=CC=C(C=C4)Cl
In short: as §1

[3] = compound: C1=CC2=C(C=CC(=C2)/C=C\3/C(=O)NC(=NCC4=CC=CS4)S3)N=C1
In short: as §1

[4] = compound: C1=CC=C2C(=C1)C3=NNC4=CC=CC(=C43)C2=O
In short: as §1

[5] = compound: C1CCN(C1)C(=O)NC2=CC=CC(=C2)NC3=NC=C(C(=N3)NCCC4=CN=CN4)Br
In short: as §1

[6] = compound: C1CN(CCC1(CC2=CC=C(C=C2)Cl)N)C3=NC=NC4=C3C=CN4
In short: as §1

[7] = compound: CC(C)C1=C2N=C(C=C(N2N=C1)NCC3=CC=CC=C3)NCCCCCCN
In short: as §1

[8] = compound: CC1=C(C=C(C=C1)NC(=O)C2=CC(=CC=C2)C(C)(C)C#N)NC3=CC4=C(C=C3)N=CN(C4=O)C
In short: as §1

[9] = compound: C1=CC2=NC=CN=C2C=C1/C=C/3\C(=O)NC(=O)S3
In short: as §1

[10] = compound: C1=CC=C(C=C1)C2=NC(=C(N2)C3=CC=NC=C3)C4=CC(=C(C=C4)Cl)O
In short: as §1

IRAK-1-4 Inhibitor I = compound: C1COCCN1CCN2C3=CC=CC=C3N=C2NC(=O)C4=CC(=CC=C4)[N+](=O)[O-] [IRAK-1-4 Inhibitor I]
In short: as §1

ibrutinib = compound: C=CC(=O)N1CCC[C@@H](n2nc(-c3ccc(Oc4ccccc4)cc3)c3c(N)ncnc32)C1 [ibrutinib]
In short: as §1

[11] = compound: CC(=O)c1cnc2ccc(-c3cc(Cl)c(O)c(Cl)c3)nc2c1N[C@H]1CC[C@H](CN(C)C)CC1
In short: as §1

ralimetinib = compound: CC(C)(C)Cn1c(N)nc2ccc(-c3[nH]c(C(C)(C)C)nc3-c3ccc(F)cc3)nc21 [ralimetinib]
In short: as §1

[12] = compound: CC(C)(O)CC(=O)NCCn1ccc2ncnc(Nc3ccc(Oc4cccc(C(F)(F)F)c4)c(Cl)c3)c21
In short: as §1

[13] = compound: CC1=C(C2=C(C=C1)C(=O)C3=CC=CC=C3N2CCCN)C
In short: as §1

[14] = compound: CC1=C(C=C(C=C1)NC(=O)C2=CC(=CC=C2)N(C)C)NC(=O)C3=CC=C(C=C3)O
In short: as §1

[15] = compound: CC1=CC=C(C=C1)SC2=C3C=C(SC3=CN=C2)C(=O)N
In short: as §1

[16] = compound: CC1=C(C(CC(=O)N1)C2=CC=C(C=C2)C(F)(F)F)C(=O)NC3=C(C=C4C(=C3)C=NN4)F
In short: as §1

Measured: log2 fold change

GPSM1 (UniProt Q86YR5)
inactive: erlotinib -0.012 | [1] -0.141 | [2] -0.049 | [3] -0.045 | [4] -0.027 | [5] 0.135 | [6] 0.083 | [7] 0.058 | [8] 0.074

GGACT (UniProt Q9BVM4)
inactive: erlotinib -0.007 | [1] -0.198 | [2] 0.022 | [3] -0.046 | [9] -0.028 | [10] -0.004 | [4] -0.117 | [5] -0.041 | [6] 0.044 | IRAK-1-4 Inhibitor I 0.039 | ibrutinib 0.026 | [11] 0.03 | ralimetinib 0.033 | [12] 0.002 | [7] -0.009 | [13] -0.053 | [8] 0.117 | [14] 0.004 | [15] -0.015

GMEB1 isoform 2 (UniProt Q9Y692)
inactive: [10] -0.484 | IRAK-1-4 Inhibitor I -0.116 | ralimetinib 0.058 | [12] -0.077 | [16] 0.073 | [8] 0.043 | [14] -0.071

GLIPR2 (UniProt Q9H4G4)
inactive: erlotinib -0.04 | [1] 0.039 | [2] -0.002 | [3] 0.026 | [9] 0.013 | [10] -0.021 | [4] 0.061 | [5] -0.009 | [6] 0.113 | IRAK-1-4 Inhibitor I -0.101 | ibrutinib -0.032 | [11] 0 | ralimetinib -0.122 | [12] 0.045 | [7] 0.04 | [16] 0.018 | [13] -0.004 | [8] -0.037 | [14] 0.048 | [15] 0.054

GPBP1L1 (UniProt Q9HC44)
inactive: erlotinib 0 | [1] -0.048 | [2] 0.065 | [3] 0.012 | [9] -0.023 | [10] -0.005 | [4] 0.061 | [5] -0.005 | [6] -0.045 | IRAK-1-4 Inhibitor I 0.057 | ibrutinib 0.055 | [11] -0.12 | ralimetinib 0.022 | [12] -0.007 | [7] -0.155 | [13] 0.016 | [8] 0.064 | [14] -0.011 | [15] -0.061

GNG12 (UniProt Q9UBI6)
inactive: [1] -0.082 | [3] 0.096 | [4] 0.1 | [16] -0.221

Reprinted at random: 2 records from the list.
GGACT (UniProt Q9BVM4)
inactive: erlotinib -0.007 | [1] -0.198 | [2] 0.022 | [3] -0.046 | [9] -0.028 | [10] -0.004 | [4] -0.117 | [5] -0.041 | [6] 0.044 | IRAK-1-4 Inhibitor I 0.039 | ibrutinib 0.026 | [11] 0.03 | ralimetinib 0.033 | [12] 0.002 | [7] -0.009 | [13] -0.053 | [8] 0.117 | [14] 0.004 | [15] -0.015

GPBP1L1 (UniProt Q9HC44)
inactive: erlotinib 0 | [1] -0.048 | [2] 0.065 | [3] 0.012 | [9] -0.023 | [10] -0.005 | [4] 0.061 | [5] -0.005 | [6] -0.045 | IRAK-1-4 Inhibitor I 0.057 | ibrutinib 0.055 | [11] -0.12 | ralimetinib 0.022 | [12] -0.007 | [7] -0.155 | [13] 0.016 | [8] 0.064 | [14] -0.011 | [15] -0.061

(list continues)

GOSR1 (UniProt E9PCW1)
inactive: [9] -0.19 | [10] -0.19 | IRAK-1-4 Inhibitor I -0.038 | ibrutinib 0.102 | ralimetinib 0.085 | [12] 0.033 | [16] 0.145 | [13] -0.036 | [8] -0.024 | [14] -0.094

GPLD1 (UniProt P80108)
inactive: [13] -0.058 | [8] -0.187

GNPTAB (UniProt Q3T906)
inactive: erlotinib -0.01 | [2] 0.036 | [9] -0.18 | [10] -0.006 | IRAK-1-4 Inhibitor I -0.064 | ibrutinib 0.158 | ralimetinib 0.026 | [12] -0.041 | [7] 0.094 | [16] 0.192 | [13] -0.233 | [8] 0.042 | [14] -0.165

GLMP (UniProt Q8WWB7)
inactive: erlotinib 0.01 | [1] 0.04 | [2] 0.013 | [3] -0.027 | [10] 0.026 | [4] -0.141 | [5] 0.084 | [6] 0.043 | IRAK-1-4 Inhibitor I -0.028 | ralimetinib -0.025 | [12] 0.019 | [7] -0.032 | [16] -0.014 | [13] 0.055 | [8] 0.082 | [14] -0.006

GPA33 (UniProt Q99795)
inactive: erlotinib -0.014 | [1] 0.082 | [2] -0.002 | [3] -0.091 | [9] -0.032 | [10] -0.05 | [4] -0.151 | [5] 0.001 | [6] 0.046 | IRAK-1-4 Inhibitor I 0.024 | ibrutinib 0.037 | [11] -0.029 | ralimetinib 0.188 | [12] -0.123 | [7] -0.067 | [16] -0.091 | [13] 0 | [14] -0.024 | [15] 0.026

GPSM2 (UniProt P81274)
inactive: erlotinib 0.101 | [1] 0.055 | [2] -0.051 | [3] -0.306 | [9] -0.155 | [4] -0.055 | [5] -0.028 | [6] 0.155 | ibrutinib -0.019 | [11] -0.052 | [7] -0.03 | [16] 0.069 | [13] -0.151 | [8] 0.111 | [15] 0.027

GORASP1 (UniProt Q9BQQ3)
inactive: erlotinib -0.081 | [1] -0.026 | [2] -0.019 | [3] 0.05 | [10] 0.01 | [4] -0.057 | [5] 0.049 | [6] 0.018 | IRAK-1-4 Inhibitor I -0.023 | [11] 0.137 | ralimetinib -0.01 | [12] -0.011 | [7] 0.019 | [16] 0.038 | [13] 0.027 | [8] -0.061 | [14] -0.034 | [15] -0.02

GK5 (UniProt Q6ZS86)
inactive: [8] 0.105

GPI (UniProt P06744)
inactive: erlotinib -0.012 | [1] 0.014 | [2] 0.002 | [3] -0.026 | [9] -0.003 | [10] -0.014 | [4] 0.002 | [5] 0.008 | [6] 0.015 | ibrutinib 0 | [11] 0.011 | ralimetinib 0.018 | [12] 0.019 | [7] -0.006 | [16] -0.012 | [13] 0.031 | [8] -0.025 | [14] -0.023 | [15] -0.001

GIPC3 (UniProt Q8TF64)
inactive: erlotinib -0.049 | [2] 0.091 | [9] -0.025 | [10] 0.063 | [5] 0.008 | [6] 0.139 | IRAK-1-4 Inhibitor I 0.101 | ibrutinib -0.021 | [11] -0.078 | ralimetinib -0.019 | [12] -0.011 | [7] 0.022 | [16] 0.282 | [13] -0.019 | [8] 0.185 | [14] -0.033 | [15] -0.13

GPATCH2L (UniProt Q9NWQ4)
inactive: [10] -0.066 | [5] -0.202 | [6] 0.089 | IRAK-1-4 Inhibitor I -0.258 | ralimetinib 0.112 | [12] 0.156 | [13] -0.159 | [8] 0.124 | [14] 0.005
